Test system: C57B1/6 mice or BDNF+/+ and BDNF± mice
Assay: Ethanol self-administration in mice (two-bottle choice)
Assay type: in vivo, mouse
Conditions: wildtype mice
Protocol: Voluntary ethanol intake in singly-housed adult male C57B1/6 mice or BDNF+/+ and BDNF±mice was established by placing a bottle containing 10% ethanol in tap water (v/v) on the home cage next to an identical bottle filled with tap water for at least 1 month. Only subjects that consumed at least 40% of their total fluid volume as ethanol were included in these studies. All injections (PBS/10% glycerol vehicle, Tat-KEP27, K252a and/or Tat-RACK1) were conducted at 15:00 hours; ethanol and water intake were measured 18 hours later at 09:00 hours. Treatments were tested using a within-subjects design; subjects received one or two injections per week. Chemicals were administered in injection volumes of 1-3 ml per 100 g body weight. The effect of a deprivation period on consumption was tested by allowing mice continuous access to a bottle of 20% ethanol in tap water and a bottle of tap water on the home cage for 2 weeks. The ethanol bottle was removed for 2 weeks. Intake of 20% ethanol and of water was measured for 4 days after the ethanol was reintroduced.

Compound: COC(=O)[C@@]1(O)C[C@H]2O[C@]1(C)n1c3ccccc3c3c4c(c5c6ccccc6n2c5c31)C(=O)NC4 [K252a]
- water consumption, mean±SEM (K252a 5 mg/kg): 1.69±0.28 mis
- water consumption, mean±SEM (K252a 25 mg/kg): 1.95±0.27 mis

From patent US20050203011A1 (The Regents of the University of California, priority 2003, published 2005)
